Assay results taken from the supplement of paper PMC10849652.
This is one part of the list.

Amino acid sequences for entries named in this document (tags omitted). A change or cut given only in a name is not applied to a line headed by its entry.
UniProt Q8IXS8: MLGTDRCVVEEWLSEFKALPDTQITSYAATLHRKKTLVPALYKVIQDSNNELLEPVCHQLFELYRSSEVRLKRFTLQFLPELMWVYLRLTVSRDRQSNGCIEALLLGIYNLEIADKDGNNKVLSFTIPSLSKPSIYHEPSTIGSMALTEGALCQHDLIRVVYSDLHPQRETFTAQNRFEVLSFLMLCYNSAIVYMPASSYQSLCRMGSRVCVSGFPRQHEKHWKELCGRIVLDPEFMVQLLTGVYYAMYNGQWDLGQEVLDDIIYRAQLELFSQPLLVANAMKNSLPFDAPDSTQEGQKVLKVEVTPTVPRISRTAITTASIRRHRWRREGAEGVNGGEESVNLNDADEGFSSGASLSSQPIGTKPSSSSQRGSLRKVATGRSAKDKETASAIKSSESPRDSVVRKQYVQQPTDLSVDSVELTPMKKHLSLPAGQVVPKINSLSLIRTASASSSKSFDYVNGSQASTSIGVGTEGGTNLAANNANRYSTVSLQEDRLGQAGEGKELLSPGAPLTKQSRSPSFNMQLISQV
UniProt Q9HBU6: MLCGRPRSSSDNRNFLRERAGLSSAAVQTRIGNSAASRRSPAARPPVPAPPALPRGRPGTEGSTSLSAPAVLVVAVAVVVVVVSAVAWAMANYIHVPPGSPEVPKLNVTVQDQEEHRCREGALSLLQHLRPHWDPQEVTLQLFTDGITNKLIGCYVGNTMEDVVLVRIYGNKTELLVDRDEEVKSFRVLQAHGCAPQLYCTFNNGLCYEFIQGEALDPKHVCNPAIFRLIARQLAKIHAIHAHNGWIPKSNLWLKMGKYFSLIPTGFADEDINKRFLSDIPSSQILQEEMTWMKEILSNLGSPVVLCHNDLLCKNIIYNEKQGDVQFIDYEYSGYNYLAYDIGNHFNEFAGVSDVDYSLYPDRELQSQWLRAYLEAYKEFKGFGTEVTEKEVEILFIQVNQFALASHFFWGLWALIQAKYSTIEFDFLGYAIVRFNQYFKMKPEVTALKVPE
UniProt Q8N8J7: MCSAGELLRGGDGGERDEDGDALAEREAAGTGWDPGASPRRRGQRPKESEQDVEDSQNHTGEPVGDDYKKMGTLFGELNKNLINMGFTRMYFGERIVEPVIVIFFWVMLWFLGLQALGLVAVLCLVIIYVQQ
UniProt O43909: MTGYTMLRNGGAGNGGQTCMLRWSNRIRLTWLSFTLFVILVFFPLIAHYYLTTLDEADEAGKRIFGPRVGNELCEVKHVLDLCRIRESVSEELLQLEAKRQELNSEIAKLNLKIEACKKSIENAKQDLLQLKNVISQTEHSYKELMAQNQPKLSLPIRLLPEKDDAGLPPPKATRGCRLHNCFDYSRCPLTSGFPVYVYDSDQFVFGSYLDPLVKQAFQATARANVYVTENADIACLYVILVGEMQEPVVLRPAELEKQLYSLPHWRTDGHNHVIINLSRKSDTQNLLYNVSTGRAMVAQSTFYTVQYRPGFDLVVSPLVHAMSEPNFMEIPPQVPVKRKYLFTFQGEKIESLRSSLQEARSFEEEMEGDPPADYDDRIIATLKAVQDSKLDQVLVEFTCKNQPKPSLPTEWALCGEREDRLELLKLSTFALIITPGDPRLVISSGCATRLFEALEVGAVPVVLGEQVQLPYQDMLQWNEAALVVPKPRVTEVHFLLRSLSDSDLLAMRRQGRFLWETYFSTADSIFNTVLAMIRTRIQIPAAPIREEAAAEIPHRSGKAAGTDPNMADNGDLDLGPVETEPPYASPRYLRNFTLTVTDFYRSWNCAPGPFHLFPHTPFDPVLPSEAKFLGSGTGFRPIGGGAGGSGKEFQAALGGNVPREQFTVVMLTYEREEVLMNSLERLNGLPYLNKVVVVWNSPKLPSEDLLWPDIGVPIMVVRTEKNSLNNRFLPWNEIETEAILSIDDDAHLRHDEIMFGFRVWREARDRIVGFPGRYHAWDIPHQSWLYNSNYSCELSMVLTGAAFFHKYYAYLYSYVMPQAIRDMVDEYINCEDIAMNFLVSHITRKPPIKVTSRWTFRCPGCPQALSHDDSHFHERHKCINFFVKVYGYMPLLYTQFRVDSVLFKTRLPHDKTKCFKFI
UniProt Q96A26: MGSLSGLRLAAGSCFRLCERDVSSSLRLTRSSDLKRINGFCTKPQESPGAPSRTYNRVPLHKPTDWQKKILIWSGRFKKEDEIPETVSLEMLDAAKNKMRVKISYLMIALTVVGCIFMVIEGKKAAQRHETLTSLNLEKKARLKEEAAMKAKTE
UniProt Q9NVQ4: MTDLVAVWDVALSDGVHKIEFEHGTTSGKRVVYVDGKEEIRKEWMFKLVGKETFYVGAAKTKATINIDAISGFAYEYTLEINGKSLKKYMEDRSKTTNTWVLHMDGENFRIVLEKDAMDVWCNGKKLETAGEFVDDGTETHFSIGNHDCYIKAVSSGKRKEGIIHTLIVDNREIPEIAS
UniProt Q8TAV0: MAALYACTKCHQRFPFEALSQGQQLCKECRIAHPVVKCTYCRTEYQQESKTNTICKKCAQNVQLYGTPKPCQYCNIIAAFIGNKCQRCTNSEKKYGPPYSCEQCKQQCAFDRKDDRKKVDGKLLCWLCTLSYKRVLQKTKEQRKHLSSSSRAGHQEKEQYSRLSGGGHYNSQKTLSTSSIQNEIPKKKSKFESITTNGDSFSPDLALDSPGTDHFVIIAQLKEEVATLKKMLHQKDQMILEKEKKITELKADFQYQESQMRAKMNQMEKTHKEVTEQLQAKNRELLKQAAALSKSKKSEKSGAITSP
UniProt Q5JUQ0: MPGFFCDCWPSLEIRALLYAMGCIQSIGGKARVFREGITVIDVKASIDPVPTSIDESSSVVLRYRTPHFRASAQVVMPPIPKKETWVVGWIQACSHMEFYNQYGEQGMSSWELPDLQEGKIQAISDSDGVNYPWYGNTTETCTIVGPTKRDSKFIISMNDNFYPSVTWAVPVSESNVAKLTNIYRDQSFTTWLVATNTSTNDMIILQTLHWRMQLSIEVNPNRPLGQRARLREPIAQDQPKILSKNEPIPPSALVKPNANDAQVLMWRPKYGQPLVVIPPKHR
UniProt Q5T8I3: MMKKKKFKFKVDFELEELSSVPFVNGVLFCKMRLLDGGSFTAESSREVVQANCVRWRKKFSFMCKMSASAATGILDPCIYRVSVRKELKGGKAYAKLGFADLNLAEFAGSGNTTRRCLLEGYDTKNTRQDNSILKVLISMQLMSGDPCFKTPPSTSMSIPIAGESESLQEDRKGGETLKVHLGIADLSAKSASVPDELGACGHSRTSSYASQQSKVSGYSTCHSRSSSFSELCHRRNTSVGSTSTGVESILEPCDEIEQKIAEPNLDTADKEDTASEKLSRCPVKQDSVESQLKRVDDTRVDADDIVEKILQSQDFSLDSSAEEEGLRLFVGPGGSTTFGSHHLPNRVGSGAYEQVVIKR
UniProt P12259: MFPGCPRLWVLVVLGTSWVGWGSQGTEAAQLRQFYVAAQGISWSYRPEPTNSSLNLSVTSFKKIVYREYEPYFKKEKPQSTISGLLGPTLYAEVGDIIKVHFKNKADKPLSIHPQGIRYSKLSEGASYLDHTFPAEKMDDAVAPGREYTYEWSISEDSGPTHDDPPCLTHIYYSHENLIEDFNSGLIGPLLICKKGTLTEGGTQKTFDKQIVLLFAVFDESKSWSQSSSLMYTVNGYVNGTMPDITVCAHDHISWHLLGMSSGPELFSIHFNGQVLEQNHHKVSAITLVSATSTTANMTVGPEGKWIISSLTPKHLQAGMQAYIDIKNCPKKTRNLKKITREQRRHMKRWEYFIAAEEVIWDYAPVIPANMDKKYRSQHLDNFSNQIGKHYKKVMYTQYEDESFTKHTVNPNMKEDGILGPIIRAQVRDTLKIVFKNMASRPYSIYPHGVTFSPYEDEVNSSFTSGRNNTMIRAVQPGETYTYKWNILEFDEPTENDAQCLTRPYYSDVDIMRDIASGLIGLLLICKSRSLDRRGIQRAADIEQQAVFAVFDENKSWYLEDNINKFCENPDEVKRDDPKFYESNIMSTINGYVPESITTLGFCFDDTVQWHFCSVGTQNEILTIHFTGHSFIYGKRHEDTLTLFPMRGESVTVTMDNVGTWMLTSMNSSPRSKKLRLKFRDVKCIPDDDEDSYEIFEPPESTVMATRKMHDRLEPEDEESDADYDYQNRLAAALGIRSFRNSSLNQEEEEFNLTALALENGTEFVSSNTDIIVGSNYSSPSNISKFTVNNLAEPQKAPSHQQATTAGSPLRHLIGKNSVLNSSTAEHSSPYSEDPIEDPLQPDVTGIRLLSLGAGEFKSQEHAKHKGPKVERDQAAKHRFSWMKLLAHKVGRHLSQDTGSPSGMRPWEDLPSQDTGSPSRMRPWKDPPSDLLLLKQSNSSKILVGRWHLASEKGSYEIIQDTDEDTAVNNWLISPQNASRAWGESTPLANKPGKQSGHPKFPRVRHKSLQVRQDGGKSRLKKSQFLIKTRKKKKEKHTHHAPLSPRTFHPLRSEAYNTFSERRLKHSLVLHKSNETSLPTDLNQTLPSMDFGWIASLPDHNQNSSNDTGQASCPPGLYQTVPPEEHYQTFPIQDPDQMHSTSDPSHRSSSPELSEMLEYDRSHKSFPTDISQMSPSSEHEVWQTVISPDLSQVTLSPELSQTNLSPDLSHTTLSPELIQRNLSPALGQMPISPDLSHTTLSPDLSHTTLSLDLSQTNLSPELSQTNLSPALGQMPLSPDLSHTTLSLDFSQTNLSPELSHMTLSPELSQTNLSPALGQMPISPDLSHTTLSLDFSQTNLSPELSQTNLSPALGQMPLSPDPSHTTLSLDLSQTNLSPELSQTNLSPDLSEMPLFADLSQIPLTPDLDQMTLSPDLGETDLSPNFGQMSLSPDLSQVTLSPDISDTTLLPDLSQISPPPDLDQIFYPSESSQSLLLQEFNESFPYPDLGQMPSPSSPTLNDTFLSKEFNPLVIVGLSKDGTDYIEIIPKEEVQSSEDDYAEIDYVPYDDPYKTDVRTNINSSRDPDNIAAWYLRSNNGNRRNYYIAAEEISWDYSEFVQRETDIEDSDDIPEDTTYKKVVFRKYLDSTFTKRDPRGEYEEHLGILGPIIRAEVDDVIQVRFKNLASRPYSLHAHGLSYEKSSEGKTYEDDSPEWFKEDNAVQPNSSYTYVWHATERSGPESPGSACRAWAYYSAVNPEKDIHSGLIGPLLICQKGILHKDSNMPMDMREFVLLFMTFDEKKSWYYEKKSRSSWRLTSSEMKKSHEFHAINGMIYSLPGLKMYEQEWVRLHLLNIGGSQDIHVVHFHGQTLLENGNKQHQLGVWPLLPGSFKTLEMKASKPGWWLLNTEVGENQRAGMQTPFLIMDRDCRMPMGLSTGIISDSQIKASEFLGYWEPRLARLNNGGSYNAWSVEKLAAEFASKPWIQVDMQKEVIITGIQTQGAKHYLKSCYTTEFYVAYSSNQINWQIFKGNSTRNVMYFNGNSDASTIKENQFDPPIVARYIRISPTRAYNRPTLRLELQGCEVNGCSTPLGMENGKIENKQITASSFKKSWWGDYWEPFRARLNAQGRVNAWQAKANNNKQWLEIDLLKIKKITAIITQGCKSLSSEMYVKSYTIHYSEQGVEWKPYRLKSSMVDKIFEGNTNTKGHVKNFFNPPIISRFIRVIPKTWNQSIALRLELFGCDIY
UniProt Q8IW50: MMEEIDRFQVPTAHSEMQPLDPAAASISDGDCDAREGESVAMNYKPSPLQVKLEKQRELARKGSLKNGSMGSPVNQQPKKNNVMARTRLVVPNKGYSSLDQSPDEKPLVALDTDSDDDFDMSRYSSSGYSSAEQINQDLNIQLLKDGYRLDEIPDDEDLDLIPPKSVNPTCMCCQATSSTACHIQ
UniProt Q9H0Q0: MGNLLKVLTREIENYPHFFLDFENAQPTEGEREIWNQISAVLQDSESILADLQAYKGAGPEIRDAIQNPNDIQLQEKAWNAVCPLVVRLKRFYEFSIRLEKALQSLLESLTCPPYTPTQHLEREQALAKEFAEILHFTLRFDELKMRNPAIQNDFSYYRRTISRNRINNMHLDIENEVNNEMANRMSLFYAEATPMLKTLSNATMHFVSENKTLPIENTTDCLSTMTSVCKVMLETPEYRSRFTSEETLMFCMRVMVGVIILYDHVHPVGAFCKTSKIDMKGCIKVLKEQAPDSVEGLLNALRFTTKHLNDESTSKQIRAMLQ
UniProt Q6IPR1: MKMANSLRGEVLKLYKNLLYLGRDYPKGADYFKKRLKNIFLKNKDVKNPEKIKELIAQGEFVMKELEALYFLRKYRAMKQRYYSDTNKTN
UniProt Q9Y2C4: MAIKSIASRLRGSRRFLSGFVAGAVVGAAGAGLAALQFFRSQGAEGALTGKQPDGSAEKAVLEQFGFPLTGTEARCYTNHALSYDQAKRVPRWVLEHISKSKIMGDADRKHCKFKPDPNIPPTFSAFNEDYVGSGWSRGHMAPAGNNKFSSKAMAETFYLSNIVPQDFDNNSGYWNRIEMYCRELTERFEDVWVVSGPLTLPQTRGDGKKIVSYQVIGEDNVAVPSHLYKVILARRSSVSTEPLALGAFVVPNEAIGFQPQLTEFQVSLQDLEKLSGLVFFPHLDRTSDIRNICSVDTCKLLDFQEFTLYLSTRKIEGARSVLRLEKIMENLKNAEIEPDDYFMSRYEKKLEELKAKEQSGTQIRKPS

Tests used:
Assay in all cases: log2 fold change, soluble protein after heating vs DMSO (PISA); higher = thermal stabilisation; K562 lysate, 10 uM; active = over 0.2 and 3.5 SD of the protein, either way, in both replicates (recomputed)
lapatinib = compound: CS(=O)(=O)CCNCc1ccc(-c2ccc3ncnc(Nc4ccc(OCc5cccc(F)c5)c(Cl)c4)c3c2)o1 [lapatinib]
Summary of the method: (§1)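 Following dounce homogenisation of K562 pellets in PBS pH 7.4 with 1 mM MgCl2, crude extract at 1 mg/mL protein was incubated for 30 min with 10 μM compound. Aliquots were then heated for 3 min over 48°C-58°C and pooled, NP-40 was added to 0.5% at 4°C, and soluble protein was recovered as the supernatant at 21,000xg for 90 min. Channel-sum-equalised TMTpro 16plex LC-MS/MS quantified this protein. Each value, from duplicates, is a log-two fold change in thermal stability relative to solvent controls.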

pictilisib = compound: CS(=O)(=O)N1CCN(Cc2cc3nc(-c4cccc5[nH]ncc45)nc(N4CCOCC4)c3s2)CC1 [pictilisib]
Summary of the method: as §1

crizotinib = compound: C[C@@H](Oc1cc(-c2cnn(C3CCNCC3)c2)cnc1N)c1c(Cl)ccc(F)c1Cl [crizotinib]
Summary of the method: as §1

[1] = compound: C[C@H](C1=CC=C(C=C1)C(=O)NC2=C3C=CNC3=NC=C2)N
Summary of the method: as §1

duvelisib = compound: C[C@H](Nc1ncnc2nc[nH]c12)c1cc2cccc(Cl)c2c(=O)n1-c1ccccc1 [duvelisib]
Summary of the method: as §1

gandotinib = compound: Cc1cc(Nc2cc(CN3CCOCC3)c3nc(C)c(Cc4ccc(Cl)cc4F)n3n2)n[nH]1 [gandotinib]
Summary of the method: as §1

tozasertib = compound: Cc1cc(Nc2cc(N3CCN(C)CC3)nc(Sc3ccc(NC(=O)C4CC4)cc3)n2)n[nH]1 [tozasertib]
Summary of the method: as §1

doramapimod = compound: Cc1ccc(-n2nc(C(C)(C)C)cc2NC(=O)Nc2ccc(OCCN3CCOCC3)c3ccccc23)cc1 [doramapimod]
Summary of the method: as §1

bafetinib = compound: Cc1ccc(NC(=O)c2ccc(CN3CC[C@H](N(C)C)C3)c(C(F)(F)F)c2)cc1Nc1nccc(-c2cncnc2)n1 [bafetinib]
Summary of the method: as §1

[2] = compound: Cc1cccc(CC(=O)N2CCc3c2ccc(-c2cn(C)c4ncnc(N)c24)c3F)n1
Summary of the method: as §1

nilotinib = compound: Cc1cn(-c2cc(NC(=O)c3ccc(C)c(Nc4nccc(-c5cccnc5)n4)c3)cc(C(F)(F)F)c2)cn1 [nilotinib]
Summary of the method: as §1

[3] = compound: Cc1nc(Nc2n[nH]c3c2CN(C(=O)N[C@H](CN(C)C)c2ccccc2)C3(C)C)c2sccc2n1
Summary of the method: as §1

dasatinib = compound: Cc1nc(Nc2ncc(C(=O)Nc3c(C)cccc3Cl)s2)cc(N2CCN(CCO)CC2)n1 [dasatinib]
Summary of the method: as §1

[4] = compound: Cc1ncc(-c2ccnc(Nc3ccc(S(C)(=O)=O)cc3)n2)n1C(C)C
Summary of the method: as §1

[5] = compound: Cn1cc(-c2ccc3c(c2)CCN3C(=O)Cc2cccc(C(F)(F)F)c2)c2c(N)ncnc21
Summary of the method: as §1

quisinostat = compound: Cn1cc(CNCC2CCN(c3ncc(C(=O)NO)cn3)CC2)c2ccccc21 [quisinostat]
Summary of the method: as §1

tipifarnib = compound: Cn1cncc1[C@@](N)(c1ccc(Cl)cc1)c1ccc2c(c1)c(-c1cccc(Cl)c1)cc(=O)n2C [tipifarnib]
Summary of the method: as §1

[6] = compound: NC(=O)Nc1cc(-c2cccc(F)c2)sc1C(=O)N[C@H]1CCCNC1
Summary of the method: as §1

[7] = compound: NC(=O)c1cnc(N[C@@H]2CCCC[C@@H]2N)nc1Nc1cccc(-n2nccn2)c1
Summary of the method: as §1

[8] = compound: NC1(c2ccc(-c3nc4ccn5c(=O)[nH]nc5c4cc3-c3ccccc3)cc2)CCC1
Summary of the method: as §1

Measured: log2 fold change

FAHD2B (UniProt Q6P2I3)
inactive: lapatinib 0.048 | pictilisib 0 | crizotinib 0.002 | [1] -0.044 | duvelisib 0.05 | gandotinib 0.04 | tozasertib -0.047 | doramapimod -0.093 | bafetinib -0.04 | [2] -0.093 | nilotinib -0.039 | [3] 0.104 | dasatinib -0.344 | [4] 0.037 | [5] 0.11 | quisinostat 0.075 | tipifarnib 0.025 | [6] 0.117 | [7] -0.013 | [8] -0.02

FAM126B (UniProt Q8IXS8)
inactive: lapatinib 0.047 | pictilisib -0.008 | [1] -0.081 | duvelisib 0.052 | gandotinib 0.011 | tozasertib 0.091 | bafetinib 0.038 | [2] 0.096 | dasatinib -0.078 | [5] 0.092 | [7] 0.065 | [8] -0.082

ETNK1 (UniProt Q9HBU6)
inactive: lapatinib 0.001 | pictilisib -0.008 | crizotinib -0.032 | [1] -0.038 | duvelisib 0.028 | gandotinib -0.003 | tozasertib 0.038 | doramapimod -0.016 | bafetinib -0.035 | [2] 0.068 | nilotinib -0.086 | [3] 0.021 | dasatinib 0.039 | [4] 0.019 | [5] -0.022 | quisinostat -0.028 | tipifarnib 0 | [6] 0.02 | [7] 0.045 | [8] -0.031

FAM241A (UniProt Q8N8J7)
inactive: lapatinib 0.112 | pictilisib 0.127 | crizotinib 0.013 | [1] -0.083 | duvelisib 0.011 | gandotinib -0.054 | tozasertib 0.059 | doramapimod 0.082 | bafetinib -0.027 | [2] 0.223 | dasatinib 0.064 | [5] -0.004 | quisinostat 0.009 | [6] -0.028 | [7] 0.036 | [8] -0.068

ESCO2 (UniProt Q56NI9)
inactive: lapatinib -0.055 | crizotinib 0.022 | [1] 0.421 | duvelisib -0.029 | gandotinib -0.117 | tozasertib -0.04 | doramapimod 0.039 | [2] -0.299 | dasatinib -0.013 | [5] 0.507 | quisinostat -0.045 | [6] 0.009 | [7] 0.007 | [8] 0.012

EXTL3 (UniProt O43909)
inactive: lapatinib -0.264 | crizotinib -0.07 | [1] 0.035 | duvelisib 0.067 | gandotinib 0.031 | doramapimod 0.009 | [2] 0.089 | dasatinib 0.021 | [5] 0.101 | quisinostat 0.037 | [6] -0.045 | [7] -0.134 | [8] -0.067

FAM162A (UniProt Q96A26)
inactive: lapatinib 0.014 | pictilisib -0.043 | crizotinib 0.05 | [1] 0.031 | duvelisib -0.012 | gandotinib 0.007 | tozasertib -0.049 | doramapimod -0.026 | bafetinib 0.097 | [2] -0.053 | nilotinib 0.062 | [3] 0.001 | dasatinib 0.056 | [4] -0.03 | [5] -0.003 | quisinostat 0.082 | tipifarnib 0.087 | [6] -0.027 | [7] -0.039 | [8] 0.032

FAIM isoform 2 (UniProt Q9NVQ4)
inactive: lapatinib -0.035 | pictilisib -0.072 | crizotinib -0.106 | [1] 0.055 | duvelisib -0.056 | gandotinib -0.041 | tozasertib 0.129 | doramapimod -0.058 | bafetinib -0.077 | [2] 0.037 | nilotinib 0.063 | [3] 0.086 | dasatinib -0.464 | [4] 0.041 | [5] -0.058 | quisinostat 0.004 | tipifarnib -0.148 | [6] 0.04 | [7] -0.093 | [8] 0.035

FAM76A isoform 3 (UniProt Q8TAV0)
inactive: lapatinib 0.109 | pictilisib 0.068 | crizotinib -0.031 | [1] -0.073 | duvelisib -0.019 | gandotinib -0.04 | tozasertib 0.135 | doramapimod -0.094 | bafetinib -0.059 | [2] 0.071 | nilotinib 0.079 | [3] 0.162 | dasatinib 0.057 | [4] 0.038 | [5] 0.05 | quisinostat 0.164 | tipifarnib -0.189 | [6] 0.034 | [7] 0.063 | [8] 0.013

FAF1 (UniProt Q9UNN5)
inactive: lapatinib 0.009 | pictilisib 0 | crizotinib 0.042 | [1] -0.007 | duvelisib 0.034 | gandotinib 0.035 | tozasertib 0.017 | doramapimod 0 | bafetinib 0.004 | [2] -0.011 | nilotinib -0.011 | [3] 0.003 | dasatinib 0.04 | [4] 0 | [5] 0.016 | quisinostat 0.054 | tipifarnib 0.002 | [6] -0.009 | [7] -0.003 | [8] -0.005

FAM78A (UniProt Q5JUQ0)
inactive: lapatinib 0.099 | pictilisib 0.092 | crizotinib -0.093 | [1] -0.051 | duvelisib 0.082 | gandotinib 0.013 | tozasertib -0.05 | doramapimod -0.034 | bafetinib -0.029 | [2] 0.03 | nilotinib 0.034 | [3] -0.037 | dasatinib 0.243 | [4] 0.031 | [5] -0.1 | quisinostat -0.005 | tipifarnib 0.023 | [6] 0.027 | [7] -0.042 | [8] 0.007

FAM102B (UniProt Q5T8I3)
inactive: lapatinib -0.042 | pictilisib -0.031 | crizotinib -0.184 | [1] 0.088 | gandotinib -0.042 | tozasertib 0.051 | doramapimod 0.096 | bafetinib 0.021 | [2] -0.016 | quisinostat -0.214 | [6] 0.007 | [7] 0.058 | [8] 0.13

F5 (UniProt P12259)
inactive: lapatinib -0.059 | pictilisib -0.063 | crizotinib -0.023 | [1] -0.061 | duvelisib 0.033 | gandotinib 0.057 | tozasertib -0.077 | doramapimod -0.016 | bafetinib -0.004 | [2] 0.045 | nilotinib 0.099 | [3] -0.097 | dasatinib -0.003 | [4] -0.091 | [5] -0.01 | quisinostat 0.008 | tipifarnib -0.175 | [6] 0.022 | [7] 0.041 | [8] 0.024

FAM219A (UniProt Q8IW50)
inactive: lapatinib 0.004 | pictilisib 0.04 | crizotinib 0.242 | [1] -0.088 | duvelisib 0.012 | gandotinib 0.058 | tozasertib -0.112 | doramapimod -0.235 | bafetinib -0.084 | [2] 0.067 | dasatinib 0.003 | [5] -0.005 | quisinostat 0.372 | [6] -0.01 | [7] -0.006 | [8] 0.152

FAM49A (UniProt Q9H0Q0)
inactive: lapatinib -0.058 | pictilisib -0.444 | crizotinib -0.13 | [1] 0.065 | gandotinib -0.126 | tozasertib -0.027 | doramapimod -0.088 | bafetinib 0.087 | [2] 0.137 | nilotinib 0.05 | [3] 0.062 | [4] -0.102 | quisinostat -0.119 | tipifarnib 0.162 | [6] 0.127 | [7] -0.004 | [8] -0.09

Reprinted from the results shown (four entries):
FAM102B (UniProt Q5T8I3)
inactive: lapatinib -0.042 | pictilisib -0.031 | crizotinib -0.184 | [1] 0.088 | gandotinib -0.042 | tozasertib 0.051 | doramapimod 0.096 | bafetinib 0.021 | [2] -0.016 | quisinostat -0.214 | [6] 0.007 | [7] 0.058 | [8] 0.13

F5 (UniProt P12259)
inactive: lapatinib -0.059 | pictilisib -0.063 | crizotinib -0.023 | [1] -0.061 | duvelisib 0.033 | gandotinib 0.057 | tozasertib -0.077 | doramapimod -0.016 | bafetinib -0.004 | [2] 0.045 | nilotinib 0.099 | [3] -0.097 | dasatinib -0.003 | [4] -0.091 | [5] -0.01 | quisinostat 0.008 | tipifarnib -0.175 | [6] 0.022 | [7] 0.041 | [8] 0.024

FAM219A (UniProt Q8IW50)
inactive: lapatinib 0.004 | pictilisib 0.04 | crizotinib 0.242 | [1] -0.088 | duvelisib 0.012 | gandotinib 0.058 | tozasertib -0.112 | doramapimod -0.235 | bafetinib -0.084 | [2] 0.067 | dasatinib 0.003 | [5] -0.005 | quisinostat 0.372 | [6] -0.01 | [7] -0.006 | [8] 0.152

FAM49A (UniProt Q9H0Q0)
inactive: lapatinib -0.058 | pictilisib -0.444 | crizotinib -0.13 | [1] 0.065 | gandotinib -0.126 | tozasertib -0.027 | doramapimod -0.088 | bafetinib 0.087 | [2] 0.137 | nilotinib 0.05 | [3] 0.062 | [4] -0.102 | quisinostat -0.119 | tipifarnib 0.162 | [6] 0.127 | [7] -0.004 | [8] -0.09

(list continues)

ETFRF1 (UniProt Q6IPR1)
inactive: lapatinib 0.021 | pictilisib -0.01 | crizotinib -0.004 | [1] 0.112 | duvelisib -0.004 | gandotinib -0.087 | doramapimod -0.057 | bafetinib -0.039 | [2] -0.039 | nilotinib -0.038 | [3] 0.032 | dasatinib -0.01 | [4] -0.02 | [5] 0.062 | quisinostat 0.088 | tipifarnib 0.117 | [6] -0.028 | [7] 0.071 | [8] 0.046

FAM177A1 isoform 2 (UniProt Q8N128)
inactive: lapatinib -0.031 | pictilisib 0.018 | crizotinib -0.022 | [1] 0.055 | duvelisib -0.011 | gandotinib -0.028 | doramapimod -0.089 | bafetinib -0.036 | [2] 0.114 | nilotinib 0.015 | [3] 0.013 | dasatinib 0.017 | [4] -0.066 | [5] 0.012 | quisinostat 0.035 | tipifarnib 0.007 | [6] 0.025 | [7] -0.002 | [8] -0.044

EXOG (UniProt Q9Y2C4)
inactive: lapatinib 0.007 | pictilisib 0.038 | [1] -0.386 | duvelisib 0.024 | gandotinib 0.09 | tozasertib 0.02 | bafetinib -0.058 | [2] 0.014 | nilotinib -0.102 | [3] -0.207 | dasatinib -0.018 | [4] -0.195 | [5] 0.052 | tipifarnib -0.082 | [7] 0.011 | [8] -0.171
